In patent EP4667463A1, “DOMIDE MOLECULAR GLUE DERIVATIVE AND USE THEREOF” (CSPC Megalith Biopharmaceutical Co., Ltd., priority 2023, dated 2024):
The name of at least one read-out is uncertain.

What was measured:
[1] = Metabolic stability in liver microsomes; conditions: Rat liver microsomes, hepatic clearance rate calculated from CLint and hepatic blood flow; 1 µM
[2] = Metabolic stability in liver microsomes; conditions: Mouse liver microsomes, hepatic clearance rate calculated from CLint and hepatic blood flow; 1 µM
[3] = Metabolic stability in liver microsomes; conditions: Monkey liver microsomes, hepatic clearance rate calculated from CLint and hepatic blood flow; 1 µM
[4] = Metabolic stability in liver microsomes; conditions: Human liver microsomes, hepatic clearance rate calculated from CLint and hepatic blood flow; 1 µM

O=C1CCC(N2Cc3cc(CNC(=O)Nc4ccc(CCCOC5CCCNC5)c(Cl)c4)ccc3C2=O)C(=O)N1 (stereo not shown) [Compound B19]
Cl hb [1]: 5.85 mL/min/kg | Cl hb [2]: 14.3 mL/min/kg | Cl hb [3]: 8.98 mL/min/kg | Cl hb [4]: 4.55 mL/min/kg
